The text below walks through data of PubChem BioAssay AID2685 (National Center for Advancing Translational Sciences (NCATS), 2010).

The nature of this test: qHTS Assay for Lipid Storage Modulators in Drosophila S3 Cells.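 For cell number change: cells counted by Cell Tracker Red CMTPX staining in the red channel.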 Conditions: BODIPY lipid droplet fluorescence, 18-24 h; for cell number change: measured here: cell count max response, cells fed with added oleic acid. The method in brief: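 Laser-scanning cytometry quantifies lipid droplet accumulation (500–530 nm total intensity; droplet/cell object ratio) in oleic acid-fed (400 uM added) Drosophila S3 cells treated with a concentration series. 20 uM Triacsin C defined 100% inhibition.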
In general terms: qHTS replaces the single test concentration by a dilution series.

Setting [1] is: measured here: lipid fluorescence (Fed channel) AC50, cells fed with added oleic acid.
[2] abbreviates: measured here: cell number channel AC50, cells fed with added oleic acid.

The list shows a part of the results. Further columns of the screen follow, without active or inactive calls. The list favours compounds with an active or inconclusive main result. Potencies come from curve fits of mixed quality, noted in brackets.

`COc1ccccc1N(C(=O)c1ccncc1)c1nc(-c2ccc([N+](=O)[O-])cc2)cs1`: the cell number change is -10.2%. The half-maximal activity concentration (AC50) under setting [1] is 1.16 µM [rising, full curve, poor fit].
For the compound `O=C1CSC(c2cn(-c3ccccc3)nc2-c2cc3ccccc3o2)N1Cc1ccccc1` (configuration not stated), the cell number change came out at 167%. Also, the AC50 under setting [2] is 3.26 µM [rising, partial curve]. Further, under setting [1], the concentration at half-maximal activity (AC50) was 23.1 µM [rising, partial curve].
As to `CCCOc1ccc(C(=O)C(CN2CCOCC2)c2ccccc2)cc1` (configuration not stated), the cell number change was -36.8%. Also, the AC50 under setting [2] was 16.4 µM [falling, single point]. Further, the AC50 under setting [1] was 18.4 µM [falling, single point].
As for `Nc1[nH]n(-c2ccccc2)c(=O)c1N=Nc1ccc2ncsc2c1`, the cell number change is -40.3%. Under setting [2], the half-maximal activity concentration (AC50) was 16.4 µM [falling, single point]. Under setting [1], the AC50 was 29.1 µM [falling, single point].
For `COc1ccc(Nc2c([N+](=O)[O-])ccc3c2=NC2(CCCCC2)N=3)cc1`, the AC50 under setting [1] was 0.146 µM [falling, full curve, poor fit].
As to `Cc1ccc(C(=O)OCC(=O)NCc2cccc(Cl)c2)cc1S(=O)(=O)N1CCCCC1`, the cell number change was found to be 49.8%. Further, the half-maximal activity concentration (AC50) under setting [2] was 7.31 µM [rising, partial curve].
In the case of `COC(=O)c1ccc(Sc2nnnn2-c2ccccc2)c([N+](=O)[O-])c1`, the cell number change was -23.3%. In addition, the AC50 under setting [1] is 29.1 µM [falling, single point].
With `CCn1c(-c2ccc3[nH]c(C)c(C)c3c2)n[nH]c1=S`, the cell number change was -15.4%. Moreover, the AC50 under setting [1] is 0.259 µM [rising, full curve].
Consider `CCC1C(c2ccccc2)N(C)C(c2ccccc2)CC1(O)c1ccccc1` (configuration not stated), for which the cell number change is -51.9%. Further, under setting [2], the concentration at half-maximal activity (AC50) was 9.2 µM [falling, partial curve, poor fit]. The AC50 under setting [1] is 23.1 µM [falling, single point].
In the case of `N#C/C(=C/c1ccc(CNC(=O)C(=O)Nc2cc(Cl)cc(Cl)c2)o1)C(=O)NCc1cccnc1`, the cell number change is -3.06%. Further, the AC50 under setting [1] is 32.6 µM [falling, partial curve, poor fit].
Turning to `O=S(=O)(Nc1ccc2c(c1)OCCO2)c1ccc(F)cc1`, the cell number change was -37.6%. Further, under setting [2], the half-maximal activity concentration (AC50) is 0.164 µM [falling, full curve, poor fit].
On to `COC(=O)c1ccc(CSc2nnc3sc4ccccc4n23)o1`, for which the cell number change is -10.2%.
As for `CSC(SC)=C(C#N)C(=O)c1ccccc1`, the cell number change was -58%. The AC50 under setting [1] is 29.1 µM [falling, single point].
With `COc1cccc(/C=N/NC(=S)NCCc2ccccc2)c1OC`, the cell number change was determined as 2.93%. Besides, the half-maximal activity concentration (AC50) under setting [2] was 6.51 µM [falling, single point].
Regarding `COC(=O)c1c(NC(NC(=O)C(C)C)C(Cl)(Cl)Cl)sc2c1CCCC2` (configuration not stated), the cell number change is 30.5%. Besides, the concentration at half-maximal activity (AC50) under setting [2] was 14.6 µM [rising, single point].

As a reminder, the AC50 is the midpoint of the concentration-response curve, whichever way the signal moves.
